Results are given in words; binding and its absence hold for the method and conditions named. Binding seen in cells or lysates may run through a third protein. These calls come from enrichment with a bait or labelling near it, and not all partners need be listed. A no says only that the protein was not detected with the bait.
Target: SARS-CoV-2 Orf9b, 2xStrep-tagged, expressed in HEK293T cells (SARS-CoV-2) (UniProt P0DTD2)
Assay: affinity purification with mass spectrometry

“MTARC2, human, endogenous in HEK293T cells (from UniProt Q969Z3 36-335)” was tested, and the binding was “no binding”.

Source: doi:10.1101/2025.07.26.666918
